Binding data for one substance are collected here from PMC6911156.

The chains behind the UniProt entries cited, without tags or fusion partners. Residues count along the entry.
UniProt P80370, residues 24-383: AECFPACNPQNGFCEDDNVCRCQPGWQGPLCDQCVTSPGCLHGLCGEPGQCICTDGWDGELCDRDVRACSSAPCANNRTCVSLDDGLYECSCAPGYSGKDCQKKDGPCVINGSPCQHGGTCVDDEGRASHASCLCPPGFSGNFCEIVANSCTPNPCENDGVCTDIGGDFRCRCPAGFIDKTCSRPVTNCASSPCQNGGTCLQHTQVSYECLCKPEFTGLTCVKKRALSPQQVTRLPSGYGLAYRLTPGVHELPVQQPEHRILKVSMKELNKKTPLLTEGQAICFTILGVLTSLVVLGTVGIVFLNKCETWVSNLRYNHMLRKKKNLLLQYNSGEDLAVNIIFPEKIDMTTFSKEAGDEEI
UniProt O75376: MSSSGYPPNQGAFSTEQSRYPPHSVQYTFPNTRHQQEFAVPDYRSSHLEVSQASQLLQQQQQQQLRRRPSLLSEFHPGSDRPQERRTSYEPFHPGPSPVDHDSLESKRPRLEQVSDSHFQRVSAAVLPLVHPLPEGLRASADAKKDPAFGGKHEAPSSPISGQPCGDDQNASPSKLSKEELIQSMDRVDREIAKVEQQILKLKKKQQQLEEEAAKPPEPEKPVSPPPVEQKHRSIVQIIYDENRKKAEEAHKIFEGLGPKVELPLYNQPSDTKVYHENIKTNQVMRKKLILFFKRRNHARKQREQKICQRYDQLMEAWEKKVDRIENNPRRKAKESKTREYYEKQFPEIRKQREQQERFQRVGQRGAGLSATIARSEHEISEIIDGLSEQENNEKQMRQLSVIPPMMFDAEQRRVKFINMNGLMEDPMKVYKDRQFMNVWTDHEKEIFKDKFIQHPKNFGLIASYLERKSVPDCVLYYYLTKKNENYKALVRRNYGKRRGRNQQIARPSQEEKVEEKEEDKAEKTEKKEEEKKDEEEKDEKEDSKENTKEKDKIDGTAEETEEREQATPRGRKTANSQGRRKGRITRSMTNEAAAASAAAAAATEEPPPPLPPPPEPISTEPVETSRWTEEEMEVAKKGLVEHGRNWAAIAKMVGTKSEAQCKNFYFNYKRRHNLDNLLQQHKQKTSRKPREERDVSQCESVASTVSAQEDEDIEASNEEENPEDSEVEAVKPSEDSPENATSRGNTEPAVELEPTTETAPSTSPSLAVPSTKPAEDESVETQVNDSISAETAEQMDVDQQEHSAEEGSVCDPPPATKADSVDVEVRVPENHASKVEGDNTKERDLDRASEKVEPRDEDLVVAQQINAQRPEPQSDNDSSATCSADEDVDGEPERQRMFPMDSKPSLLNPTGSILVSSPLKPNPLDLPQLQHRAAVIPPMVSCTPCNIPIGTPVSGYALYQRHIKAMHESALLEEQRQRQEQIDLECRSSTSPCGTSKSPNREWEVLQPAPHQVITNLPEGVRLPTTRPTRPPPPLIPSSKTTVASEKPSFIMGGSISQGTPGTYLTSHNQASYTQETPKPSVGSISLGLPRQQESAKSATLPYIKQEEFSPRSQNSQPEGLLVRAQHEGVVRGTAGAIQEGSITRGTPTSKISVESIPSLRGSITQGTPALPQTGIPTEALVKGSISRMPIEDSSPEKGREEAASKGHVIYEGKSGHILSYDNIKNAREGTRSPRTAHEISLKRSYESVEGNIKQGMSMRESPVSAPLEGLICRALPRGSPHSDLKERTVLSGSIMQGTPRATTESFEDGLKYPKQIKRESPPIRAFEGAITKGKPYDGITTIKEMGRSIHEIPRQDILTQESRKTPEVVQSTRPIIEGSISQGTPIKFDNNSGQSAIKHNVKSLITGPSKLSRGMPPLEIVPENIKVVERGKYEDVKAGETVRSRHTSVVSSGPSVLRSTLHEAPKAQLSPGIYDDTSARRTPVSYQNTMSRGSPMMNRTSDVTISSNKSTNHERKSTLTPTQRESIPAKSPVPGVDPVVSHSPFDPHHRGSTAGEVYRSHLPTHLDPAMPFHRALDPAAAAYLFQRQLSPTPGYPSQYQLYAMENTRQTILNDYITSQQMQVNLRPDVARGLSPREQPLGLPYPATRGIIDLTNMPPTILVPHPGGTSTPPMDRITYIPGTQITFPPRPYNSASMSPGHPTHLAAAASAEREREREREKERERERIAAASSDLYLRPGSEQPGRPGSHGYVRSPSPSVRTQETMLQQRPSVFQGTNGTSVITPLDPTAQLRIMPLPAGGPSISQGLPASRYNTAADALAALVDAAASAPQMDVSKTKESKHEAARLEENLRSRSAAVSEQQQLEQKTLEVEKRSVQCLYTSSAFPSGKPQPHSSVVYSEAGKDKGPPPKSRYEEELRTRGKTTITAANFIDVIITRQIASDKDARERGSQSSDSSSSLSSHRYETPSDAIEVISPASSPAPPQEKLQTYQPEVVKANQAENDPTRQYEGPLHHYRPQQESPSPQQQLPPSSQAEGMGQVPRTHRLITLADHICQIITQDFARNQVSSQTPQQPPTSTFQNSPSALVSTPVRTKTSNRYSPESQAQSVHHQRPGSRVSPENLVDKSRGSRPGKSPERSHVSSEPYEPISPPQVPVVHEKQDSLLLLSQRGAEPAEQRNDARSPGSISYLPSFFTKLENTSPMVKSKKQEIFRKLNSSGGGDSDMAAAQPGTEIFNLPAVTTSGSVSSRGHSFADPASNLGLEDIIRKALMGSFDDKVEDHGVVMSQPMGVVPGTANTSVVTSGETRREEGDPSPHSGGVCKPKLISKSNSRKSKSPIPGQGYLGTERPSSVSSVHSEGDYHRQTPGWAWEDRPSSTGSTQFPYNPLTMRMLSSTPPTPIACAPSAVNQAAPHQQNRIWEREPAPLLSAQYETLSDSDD

This assay addresses Delta-like homolog 1 (DLK1) (human (endogenous in A549 and H1299)) (UniProt P80370). Briefly: affinity purification with mass spectrometry; A549 total cell lysate incubated with rabbit polyclonal anti-DLK1 antibody and protein A/G beads overnight at 4°C; bands differing from the normal rabbit IgG control cut from the Coomassie-stained SDS/PAGE gel for LC-MS; two independent pull-downs.

These are yes or no findings as the source states them, for the method shown. Binding seen in cells or lysates may run through a third protein. Here binding means that the protein was enriched with, or labelled near, the bait; the list need not be complete.

“nuclear receptor corepressor 1 (NCOR1) (from UniProt O75376 1-2440)”: the binding entry is “binds”.
